Data on two substances can be found in patent publication US4687759 (dated 1987).

This data set is described as follows: general procedure: solution-phase peptide synthesis; BOP/DIEA. Particulars: late stage modification step.

Strings that start with PEPTIDE1 are HELM notation: dots part the residues, brackets hold end groups and non-standard residues.

For the substance “PEPTIDE1{[Boc].[bAla].[dW].L.D.[OPhEt]}$$$$V2.0”, the step yield is on record as 84%.

Substance “PEPTIDE1{[Boc].[bAla].W.L.D.[OPhEt]}$$$$V2.0” returned a step yield of 79%.
